This is an account of results in article PMC11112778.

Protein sequences, listed by entry. Tags and fused reporters are not part of them.
UniProt P19474: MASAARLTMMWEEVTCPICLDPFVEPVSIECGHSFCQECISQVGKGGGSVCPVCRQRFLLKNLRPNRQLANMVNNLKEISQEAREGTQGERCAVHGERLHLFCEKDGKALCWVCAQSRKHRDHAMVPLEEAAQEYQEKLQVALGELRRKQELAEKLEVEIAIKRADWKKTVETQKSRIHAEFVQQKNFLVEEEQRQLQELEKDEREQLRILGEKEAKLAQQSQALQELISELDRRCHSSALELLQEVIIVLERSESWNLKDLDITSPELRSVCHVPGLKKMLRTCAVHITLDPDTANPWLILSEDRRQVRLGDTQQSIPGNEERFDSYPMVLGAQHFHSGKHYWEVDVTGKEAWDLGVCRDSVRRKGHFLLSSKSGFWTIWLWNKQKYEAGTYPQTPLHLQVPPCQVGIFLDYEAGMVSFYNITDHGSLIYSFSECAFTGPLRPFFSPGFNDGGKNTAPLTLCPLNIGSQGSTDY

This test concerns the target T1, NIMA-related kinase 2 (human (endogenous in ESCC cells)) (UniProt P51955).
T1 sequence: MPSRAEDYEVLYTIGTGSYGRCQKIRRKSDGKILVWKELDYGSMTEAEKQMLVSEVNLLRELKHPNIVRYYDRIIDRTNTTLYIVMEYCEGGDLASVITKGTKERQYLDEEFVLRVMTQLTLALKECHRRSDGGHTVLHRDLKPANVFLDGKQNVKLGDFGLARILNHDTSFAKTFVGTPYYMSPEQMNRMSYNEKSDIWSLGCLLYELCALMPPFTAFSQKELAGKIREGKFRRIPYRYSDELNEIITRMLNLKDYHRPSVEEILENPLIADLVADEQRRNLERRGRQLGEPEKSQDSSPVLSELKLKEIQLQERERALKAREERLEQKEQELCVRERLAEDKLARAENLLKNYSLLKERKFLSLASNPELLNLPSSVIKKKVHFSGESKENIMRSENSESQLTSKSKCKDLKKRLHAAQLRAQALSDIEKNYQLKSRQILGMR
In words: co-IP; ESCC cell lysates (RIPA lysis buffer) incubated with NEK2 or TRIM21 antibody overnight at 4 °C; protein A/G agarose beads 4 h at 4 °C; western blotting; IgG control. A general note: In western blotting, separated proteins are transferred to a membrane and probed.

These are yes or no findings as the source states them, for the method shown. In cells and extracts the contact can be indirect. Some binding calls cover weakened binding; strength is not graded here.

For the substance “tripartite motif-containing protein 21 (from UniProt P19474 1-475)”, the binding result is “binds”.
